Pks13 thioesterase: 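Enzyme assay of the thioesterase domain of polyketide synthase 13; the read-out is not stated. Target: Polyketide synthase Pks13, Mycobacterium tuberculosis (UniProt I6X8D2). Tested at 30 µM. Higher reads as stronger inhibition (inferred from which compounds were picked for retests). Of about 67,000 compounds tested this way, about 300 (0.46%) reached 50% or more in at least one test.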
TcHisRS: 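Enzyme assay of histidyl-tRNA synthetase; the read-out is not stated. Target: Histidine-tRNA ligase, Trypanosoma cruzi CL Brener (UniProt Q4DA54). Tested at 30 µM. The record gives no direction; compounds that gave an IC50 in retests scored well above the rest, so higher reads as stronger inhibition. Size under these conditions: about 69,000 compounds, about 31 of them at 50% or above in at least one test.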
ClpP1P2: 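Protease assay of ClpP1P2, read by the AMC dye that it sets free. Target: ClpP1P2, Mycobacterium tuberculosis (UniProt P9WPC5 and UniProt P9WPC3). Compounds at 50 µM. Higher reads as stronger inhibition, judged from the few compounds that gave an IC50. Most other retested compounds had strongly negative values. About 69,000 compounds were tested under these conditions; 0.015% (about 10) showed 50% or more at least once.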
Leishmania in macrophages: 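Cell assay of Leishmania donovani living inside macrophages; the read-out is not stated. Concentration: 30 µM. The record gives no direction; compounds that gave an IC50 in retests scored well above the rest, so higher reads as stronger inhibition. Size under these conditions: about 69,000 compounds, about 1,000 of them at 50% or above in at least one test.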
LiHisRS: 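Enzyme assay of histidyl-tRNA synthetase; the read-out is not stated. Target: Histidine-tRNA ligase, Leishmania infantum (UniProt A4I591). Tested at 30 µM. Higher reads as stronger inhibition (inferred: compounds with an IC50 in retests scored well above the rest). The assay is labelled LdHisRS but filed under L. infantum. Size under these conditions: about 69,000 compounds, about 410 of them at 50% or above in at least one test.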

The chains behind the UniProt entries cited, without tags or fusion partners. Residues count along the entry.
UniProt I6X8D2, whole entry: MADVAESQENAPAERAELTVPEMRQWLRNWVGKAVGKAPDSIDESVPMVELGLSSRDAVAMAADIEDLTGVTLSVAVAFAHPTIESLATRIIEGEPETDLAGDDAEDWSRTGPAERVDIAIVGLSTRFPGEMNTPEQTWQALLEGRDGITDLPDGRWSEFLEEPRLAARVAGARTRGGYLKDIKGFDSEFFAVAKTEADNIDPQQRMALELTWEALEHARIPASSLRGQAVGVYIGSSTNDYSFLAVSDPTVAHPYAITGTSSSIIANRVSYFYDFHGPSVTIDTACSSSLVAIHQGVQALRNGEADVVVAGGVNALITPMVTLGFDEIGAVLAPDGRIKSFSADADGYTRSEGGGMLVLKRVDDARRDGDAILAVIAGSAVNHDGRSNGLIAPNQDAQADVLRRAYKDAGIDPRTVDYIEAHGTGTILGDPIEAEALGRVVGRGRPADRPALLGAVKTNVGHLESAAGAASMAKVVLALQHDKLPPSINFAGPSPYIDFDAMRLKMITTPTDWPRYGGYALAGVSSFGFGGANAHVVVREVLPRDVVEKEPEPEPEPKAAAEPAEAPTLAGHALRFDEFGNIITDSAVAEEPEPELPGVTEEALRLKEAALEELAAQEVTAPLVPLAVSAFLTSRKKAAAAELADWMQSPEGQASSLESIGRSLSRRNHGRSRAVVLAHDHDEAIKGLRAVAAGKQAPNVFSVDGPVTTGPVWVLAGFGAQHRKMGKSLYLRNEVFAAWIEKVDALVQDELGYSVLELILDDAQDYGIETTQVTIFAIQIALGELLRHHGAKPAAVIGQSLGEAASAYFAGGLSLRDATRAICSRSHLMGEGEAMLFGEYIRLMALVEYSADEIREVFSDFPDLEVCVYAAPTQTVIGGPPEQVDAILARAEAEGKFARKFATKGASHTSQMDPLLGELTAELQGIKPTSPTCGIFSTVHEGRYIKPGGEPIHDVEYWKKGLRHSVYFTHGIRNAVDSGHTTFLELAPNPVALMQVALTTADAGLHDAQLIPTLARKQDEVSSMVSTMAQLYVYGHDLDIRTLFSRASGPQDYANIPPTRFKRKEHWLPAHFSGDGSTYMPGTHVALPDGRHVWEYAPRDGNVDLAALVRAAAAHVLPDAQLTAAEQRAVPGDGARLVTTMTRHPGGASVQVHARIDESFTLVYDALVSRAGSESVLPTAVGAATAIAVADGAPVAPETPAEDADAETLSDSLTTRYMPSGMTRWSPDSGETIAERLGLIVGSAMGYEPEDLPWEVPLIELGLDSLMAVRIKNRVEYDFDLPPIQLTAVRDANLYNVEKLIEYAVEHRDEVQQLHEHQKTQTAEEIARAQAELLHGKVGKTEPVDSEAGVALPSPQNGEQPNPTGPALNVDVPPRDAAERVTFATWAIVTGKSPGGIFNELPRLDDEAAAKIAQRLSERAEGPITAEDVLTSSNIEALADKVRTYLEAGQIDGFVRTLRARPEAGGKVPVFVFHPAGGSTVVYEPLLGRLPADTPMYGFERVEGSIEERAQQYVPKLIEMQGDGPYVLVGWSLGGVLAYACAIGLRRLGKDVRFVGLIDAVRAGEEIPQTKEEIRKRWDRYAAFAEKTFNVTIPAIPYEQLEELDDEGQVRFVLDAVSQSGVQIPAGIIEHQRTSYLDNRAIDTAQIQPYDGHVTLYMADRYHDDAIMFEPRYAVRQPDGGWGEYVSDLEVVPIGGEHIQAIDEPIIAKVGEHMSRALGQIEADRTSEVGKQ
UniProt Q4DA54, 1-478: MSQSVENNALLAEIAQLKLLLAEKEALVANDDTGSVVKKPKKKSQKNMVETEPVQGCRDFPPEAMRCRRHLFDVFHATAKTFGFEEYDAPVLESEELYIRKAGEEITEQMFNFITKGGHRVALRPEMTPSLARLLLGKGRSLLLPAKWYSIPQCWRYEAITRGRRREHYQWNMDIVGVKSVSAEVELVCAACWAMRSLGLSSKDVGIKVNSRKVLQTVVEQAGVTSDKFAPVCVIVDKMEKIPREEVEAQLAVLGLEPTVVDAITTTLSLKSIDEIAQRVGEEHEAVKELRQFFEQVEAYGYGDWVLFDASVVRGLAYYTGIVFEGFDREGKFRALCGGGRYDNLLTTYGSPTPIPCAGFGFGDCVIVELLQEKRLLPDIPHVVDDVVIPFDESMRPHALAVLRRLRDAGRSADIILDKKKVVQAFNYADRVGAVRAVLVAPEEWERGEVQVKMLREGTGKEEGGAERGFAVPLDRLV
UniProt P9WPC5, whole entry: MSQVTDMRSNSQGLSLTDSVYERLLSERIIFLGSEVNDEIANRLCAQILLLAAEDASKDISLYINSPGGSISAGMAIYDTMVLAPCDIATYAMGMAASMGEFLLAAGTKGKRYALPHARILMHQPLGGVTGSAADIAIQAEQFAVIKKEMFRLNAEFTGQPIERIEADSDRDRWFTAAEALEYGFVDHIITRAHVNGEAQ
UniProt P9WPC3, whole entry partner: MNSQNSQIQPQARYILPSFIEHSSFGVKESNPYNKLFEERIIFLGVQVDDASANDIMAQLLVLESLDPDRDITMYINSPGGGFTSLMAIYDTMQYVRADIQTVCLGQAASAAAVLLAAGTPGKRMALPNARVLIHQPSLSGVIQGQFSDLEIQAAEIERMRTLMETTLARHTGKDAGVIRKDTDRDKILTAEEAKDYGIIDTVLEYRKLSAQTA
UniProt A4I591, 1-473: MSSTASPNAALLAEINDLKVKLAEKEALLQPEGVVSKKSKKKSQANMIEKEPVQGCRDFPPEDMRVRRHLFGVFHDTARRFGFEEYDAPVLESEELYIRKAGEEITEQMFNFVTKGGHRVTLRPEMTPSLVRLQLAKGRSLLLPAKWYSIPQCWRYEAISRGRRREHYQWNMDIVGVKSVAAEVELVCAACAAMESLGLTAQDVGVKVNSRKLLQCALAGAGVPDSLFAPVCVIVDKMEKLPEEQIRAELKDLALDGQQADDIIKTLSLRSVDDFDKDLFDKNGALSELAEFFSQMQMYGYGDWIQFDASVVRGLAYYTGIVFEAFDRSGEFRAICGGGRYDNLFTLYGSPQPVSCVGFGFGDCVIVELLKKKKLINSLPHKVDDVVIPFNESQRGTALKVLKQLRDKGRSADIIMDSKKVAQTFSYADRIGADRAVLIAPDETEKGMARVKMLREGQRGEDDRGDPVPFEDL

The filed quantity is “Percent Effect” (%). The controls that fix the scale are not given in the record; negative values are as filed. Compounds were drawn at random from those tested, without regard to their results. Two or more numbers in one place are separate tests of the same structure; such repeats can differ widely. A dash means the value is not listed here; it may have been measured.

Compound	Pks13 thioesterase	TcHisRS	ClpP1P2	Leishmania in macrophages	LiHisRS
CC(C)C(C#N)N1CCN(C(=O)c2cc(-c3ccccn3)no2)CC1 (stereo not given)	-9.895%	2.463%	-2.212%	-10.3%	14.47%
CN(C)CC1COCCN1C(=O)C1(c2cccs2)CCCC1 (stereo not given)	-11.37%	5.366%	-12.72%	-	13.56%
CC(C)Cc1nc(CN(C)CCOc2ccc(F)cc2)no1	1.452%	4.762%	2.42%	-0.1688%	11.76%
CCNC(=O)N1CCC(NC(=O)NCCCc2cccc(F)c2)C1 (stereo not given)	-10.47%	9.827%	-4.084%	-4.542%	25.53%
CN1CCCC(Cc2cncc(C(=O)NC3CC3)c2)C1 (stereo not given)	-16.61%	2.247%	12.32%	-1.75%	6%
COc1ccc(CC(=O)N2CCCC(n3cc(C)cn3)C2)c(OC)c1 (stereo not given)	-8.966%	9.04%	-22.27%	20.35%	10.34%
[H][C@]12CC[C@@]3(N=C(C)N(CC(C)C)C3=O)[C@@]1([H])CN(C(=O)NCC(C)C)C2	-	-	-	-7.144%	-
CCn1cc(CN2CCN(C(=O)c3cc(C)c(C)s3)CC2)c(C)n1	-24.8%	5.699%	5.204%	-33.25%	15.05%
COC(=O)C(C)CN(Cc1ccccc1)C(=O)CN1CCCNC1=O (stereo not given)	-19.75%	4.348%	7.332%	-11.26%	-3.03%
FC(F)(F)c1nc(C2CCNCC2)no1	-8.221%	2.26%	-14.25%	-	5.594%
c1cc(-c2cnccn2)cc(-c2ccn(CCN3CCCCC3)n2)c1	-	-2.326%	-2.049%	-3.636%	9.836%
CN1CCc2c(C#N)c(NCCCN3CCOCC3)n3cnnc3c2C1.Cl.Cl	-	-	-	-20.7%	-
CCC(CNC(=O)c1ccc(C(N)=O)cc1)Oc1cccc(F)c1 (stereo not given)	-11%	5.422%	-8.151%	27.11%	4.396%
Cc1nn(C)c(C)c1C1CCCN1C(=O)c1ccnc(N(C)C)c1 (stereo not given)	-10.04%	6.122%	-50.51%	6.104%	7.965%
Cn1ccc(C(=O)N2CCC(Cc3cccc4ncccc34)C2)n1 (stereo not given)	-6.289%	2.198%	9.236%	1.638% & 8.841%	13.04%
Cn1nccc1C(=O)N1CCCN(CCCc2ccccc2)CC1	0.5033%	10.2%	-25.12%	15.51%	16.13%
N#Cc1cnc2c(F)cc(F)cc2c1NC1CCN(CC(N)=O)CC1	-14.26%	6.186%	4.182%	54.87%	24.14%
CCCc1n[nH]c(C2CN(C(=O)CCn3nc(C)cc3C)CCO2)n1 (stereo not given)	-12.68%	-0.8772%	-7.916%	-62.14%	5.31%
CN(Cc1ccncc1)C1COC2(CCN(c3ncc(F)cn3)CC2)C1 (stereo not given)	10.89%	10.34%	0.5913%	-	13.16%
Cc1nn(C)c(C)c1CC(=O)N1CCCC(n2ccnc2C)C1 (stereo not given)	-5.003%	3.468%	-27.58%	31.15%	9.821%
Cc1cc(C)n(CC2CCCN2Cc2cccc(C#N)c2)n1 (stereo not given)	-15.57%	4.082%	1.048%	12.58%	8.571%
Cc1noc(C)c1CN(C)c1nccc(C(F)(F)F)n1	-3.854%	4.433%	-1.084%	17.91%	11.84%
CC(Cc1cccc(Cl)c1)NC(=O)Nc1cnn(CC(N)=O)c1 (stereo not given)	-7.708%	1.69%	-0.753%	-7.057%	-0.8696%
CN1CCN(C(=O)c2ccc(Cn3cc(Br)cn3)cc2)CC1	-19.46%	5.82%	-2.828%	16.92%	5.882%
O=C(NCCn1ccnc1)c1cncc(Br)c1	-24.02%	-12.99%	3.892%	5.863%	20%
CCNc1cc2c(nn1)CCN(C(=O)C1Cc3ccccc3S1)C2 (stereo not given)	-41.55%	9.184%	-9.998%	33.63%	19.83%
COc1cc2c(cc1-c1nc3c(cnn3C(C)C(C)C)[nH]1)OCO2 (stereo not given)	-32.46%	7.514%	-3.851%	13.8%	-1.333%
COC(=O)CNC(=O)C1(NC(=O)c2ccc3[nH]ncc3c2)CCCC1	-	6.349%	3.977%	0.938%	13.7%
O=c1c(CN2CCOCC2)coc(O)c1CN1CCOCC1	2.657%	2.97%	-5.319%	0.4391%	8.696%
Cc1ccc(CN2CCC3(CCC3NC(=O)c3ccn(C)c3)CC2)s1.O=C(O)C(F)(F)F (stereo not given)	-	-	-	-2.12%	-
CCO[C@H]1CO[C@@]2(CCCN(S(=O)(=O)c3cccnc3)C2)C1.O=C(O)C(F)(F)F	-	-	-	19.56%	-
O=C(c1cn(CCN2CCCCC2)nn1)N1CCSCC1	-22.86%	9.574%	-5.952%	25.8%	-1.493%
CC(C)c1n[nH]c(C(=O)Nc2cc[nH]n2)c1Br	-19.97%	4.511%	1.457%	-2.123%	-19.1%
Cc1nn(C)c(C)c1OCC(=O)NCc1cccc(CO)c1	-11.64%	5.319%	-5.018%	-11.7%	16.42%
CN(C)CC(=O)N1CCC2(CCc3ccc(-c4ccncc4)cc32)CC1	-	6.329%	-4.547%	-	22.41%
O=C(NCCCn1cncn1)NCC(c1ccco1)N1CCCCC1 (stereo not given)	-9.976%	1.887%	12.43%	-13.42%	13.33%

The first 5 entries again:

- CC(C)C(C#N)N1CCN(C(=O)c2cc(-c3ccccn3)no2)CC1 (stereo not given) | Pks13 thioesterase: -9.895%; TcHisRS: 2.463%; ClpP1P2: -2.212%; Leishmania in macrophages: -10.3%; LiHisRS: 14.47%
- CN(C)CC1COCCN1C(=O)C1(c2cccs2)CCCC1 (stereo not given) | Pks13 thioesterase: -11.37%; TcHisRS: 5.366%; ClpP1P2: -12.72%; LiHisRS: 13.56%
- CC(C)Cc1nc(CN(C)CCOc2ccc(F)cc2)no1 | Pks13 thioesterase: 1.452%; TcHisRS: 4.762%; ClpP1P2: 2.42%; Leishmania in macrophages: -0.1688%; LiHisRS: 11.76%
- CCNC(=O)N1CCC(NC(=O)NCCCc2cccc(F)c2)C1 (stereo not given) | Pks13 thioesterase: -10.47%; TcHisRS: 9.827%; ClpP1P2: -4.084%; Leishmania in macrophages: -4.542%; LiHisRS: 25.53%
- CN1CCCC(Cc2cncc(C(=O)NC3CC3)c2)C1 (stereo not given) | Pks13 thioesterase: -16.61%; TcHisRS: 2.247%; ClpP1P2: 12.32%; Leishmania in macrophages: -1.75%; LiHisRS: 6%

Measurements from “University of Dundee, Small-Polar-MMV Screening Library” (2021), ChEMBL document CHEMBL3988442.